According to publication PMC10889443:
The exact form of at least one protein or probe is not confirmed.

Tested on: MBP-IbMYC2
Assay: EMSA
Conditions: EMSA/Gel-Shift Kit (Beyotime), manufacturer's protocol; pH and temperature not stated; unlabeled probes as competitors; recombinant protein; protein details: MBP (pETM-40, NcoI/XhoI); label: 5' biotin

Row | Sequence | binding result
1 | ATGAAGCATGCACGCACGTGCTTGGGTTTT (double strand) [IbDFR probe (G-box)] | binds
2 | TTCGGATCGGCACGTGCTTTCCCGCCTTCT (double strand) [IbCHI probe (G-box)] | binds
